# Measurements: PubChem BioAssay AID1625 (Sanford-Burnham Center for Chemical Genomics, 2009)
# Values joined by “and” are separate entries in the source; they are usually repeats but may differ in a detail not shown here. Equal entries are not always repeated. Among all 190,000 compounds or so, about 570 (0.3%) were called active. This list was built around the results that the source calls inconclusive (neither active nor inactive); the mix of calls is not that of the screen.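 How the source made its calls: active means z-score above 3 at 5 µM with at least 500 cells counted in the well; inconclusive means wells under 500 cells, flagged as cytotoxic or low count; inactive means the rest.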
# Assay: up-regulation of insulin promoter-GFP reporter – imaging, high-content screening, mouse beta cells (AID 1625)
# Conditions: MIN6 insulin promoter-GFP reporter, at 5 µM, active compounds read high
row,Structure (SMILES),z-score
1,O=C1c2cnc3nc(SCc4ccc(Cl)cc4)nn3c2CC2c3ccccc3CCN12 (stereo unspecified),inactive: -1
2,CCOc1cc(CNc2ccc(S(N)(=O)=O)cc2)cc(Cl)c1OC,inactive: 0.3
3,COc1ccc(C(=O)c2c(C(F)(F)F)oc3c2C(=O)c2ccccc2C3=O)cc1OC,inconclusive: -3.73
4,CC(=O)c1cc(C#N)c(SCC(=O)C(C)(C)C)nc1C,inconclusive: -0.89
5,COc1cccc(/C=N/Nc2ncnc(Cl)c2N)c1O,inconclusive: -1.15
6,CCCCCCc1nc2ccccc2c(=O)n1NC(=O)c1c(O)c2c(n(CC(C)C)c1=O)CCCC2,inconclusive: -3.14
7,CNC(=O)c1ccc(-c2sc3nc(N4CCOCC4)c4c(c3c2N)CC(C)(C)OC4)o1,active: 3.23
8,Cc1cccc(NC(=O)Nc2ccc(C#N)cc2)n1,active: 3.41
9,N/C(COc1ccc(Cl)cc1)=N\NS(=O)(=O)c1ccccc1,inconclusive: -5.81
10,O=C(NCC(=O)N(CC1CCCO1)C1(C(=O)NC2CCCC2)CCCCC1)c1ccccc1 (stereo unspecified),inconclusive: 0.03
11,O=C(CN1CCN(c2ncccn2)CC1)Nc1ccccc1-n1cccc1,inconclusive: -0.78
12,CC(C)c1ccccc1-n1c(SCC(=O)N2CCc3ccccc3C2)nc2ccccc2c1=O,inconclusive: -2.23
13,O=C(NN1C(=O)c2ccccc2NC1c1ccccc1OCc1ccccc1)c1ccncc1 (stereo unspecified),inactive: -0.76
14,COc1cccc(Nc2nc(NCC3CCCO3)c3ccccc3n2)c1 (stereo unspecified),inconclusive: -3.72
15,Cc1cc(C)n(-c2nc(NCCN(C)C)c3c4c(sc3n2)CCCC4)n1,inconclusive: -2.17
16,N=c1occ(C(=O)c2cc(F)ccc2O)cc1C(=O)NC1CCCCC1,inactive: 0.5
17,O=C(c1cc(-c2cccs2)on1)N1CCN(C(c2ccccc2)c2ccccc2)CC1,inconclusive: 0.96
18,Cc1ccc2c(c1)nnn2C1CCN(S(=O)(=O)c2ccc(C(=O)N3C(C)CCCC3C)cc2)CC1 (stereo unspecified),inconclusive: -2.86
19,CCCCNc1cc(C)nc(NCc2ccccc2)n1,inconclusive: -2.47
20,CN(C)c1oc(-c2ccccc2Cl)nc1P(=O)(c1ccccc1)c1ccccc1,inactive: -0.07
21,N#C/C(=C\c1ccc([N+](=O)[O-])o1)c1nc2ccccc2[nH]1,inconclusive: 13.5
22,COc1ccc(C2=Nn3c([n+](C)c4ccccc43)SC2)cc1,inconclusive: -1.99
23,O=C(/C=C/c1cc(Br)ccc1O)c1ccco1,inconclusive: -3.04

row,Structure (SMILES),z-score
1,CCCc1[nH]nc2c1C(c1ccc(Br)s1)C(C#N)=C(N)O2 (stereo unspecified),inconclusive: 0.46
2,COc1ccc(C(=O)C[n+]2cc(-c3ccc(OC)cc3)n3c2CCCC3)cc1,inconclusive: -1.48 and inconclusive: -3.05
3,COc1ccc(CCNC(=S)N2CCC(Cc3ccccc3)CC2)cc1OC,inactive: -0.47
4,CC1CCCN(c2ncnc3c2cnn3-c2ccc(Cl)cc2)C1 (stereo unspecified),inconclusive: 0.85
5,CC(C)c1ccc(-n2c(-c3ccccc3)c[n+]3c2CCc2ccccc2-3)cc1,inconclusive: -1.59
6,Cc1nc(N2CCN(C(=O)c3ccco3)CC2)c2c3c(sc2n1)CCCC3,inconclusive: -1.47
7,COCCn1c(C)cc(C(=O)COC(=O)c2ccc([N+](=O)[O-])o2)c1C,inactive: -0.08
8,Cc1ccc(S(=O)(=O)N2Cc3ccccc3CC2C(=O)Nc2ccc3c(c2)OCO3)cc1 (stereo unspecified),inactive: 0.16
9,CCOC(=O)c1[nH]c2ccccc2c1NC(=S)Nc1cccc(C)c1,inconclusive: -4.76
10,CN(C)/C=N/c1ncc(C(=O)c2ccc(Cl)cc2)s1,inconclusive: -5.1
11,CN(C)CCCN(C(=O)/C=C/c1cccs1)c1nc2ccc(F)cc2s1,inconclusive: -3.43
12,CCCCc1c(CCC)c(=N)c2ccccc2n1C,inconclusive: -8.81
13,CCN1/C(=C\c2ccc3ccccc3[n+]2CC)Sc2cc(C)ccc21,inconclusive: 17.4
14,O=C(NC(=S)NCC1CCCO1)c1ccco1 (stereo unspecified),inactive: -0.47
15,CCN(CC)S(=O)(=O)c1ccc(C(=O)OCn2c(SC)nnc(C)c2=O)cc1,inconclusive: -4.78
16,Cc1noc(C)c1S(=O)(=O)N1CCC(C(=O)N2CCN(C3CCCC3)CC2)CC1,active: 3.05
17,Cn1c(=O)n(C)c2cc([N+](=O)[O-])c(N3CCN(C(=O)c4ccccc4)CC3)cc21,inconclusive: -0.85
18,O=C(NCc1ccc(Cl)cc1)C(=O)NCC1OCCN1C(=O)c1cccs1 (stereo unspecified),inactive: -0.2
19,Cc1onc(-c2ccccc2)c1C(=O)N1CCN(C/C=C/c2ccccc2)CC1,inactive: -0.79
20,C/C(CC(=O)Nc1cc(Cl)ccc1Cl)=N\NC(N)=S,inactive: 0
21,O=C(Cn1c(-c2ccccn2)nc2ccccc21)N/N=C/c1cccnc1,inactive: -0.26
22,Cc1ccc(Sc2ccc(NC(=O)CCl)cc2)cc1C,inactive: 0.12
23,O=C1c2ccccc2C(=O)c2c1cccc2N1CCCC1,inactive: 0.05

row,Structure (SMILES),z-score
1,CCOC(=O)CNC(=O)c1cn(C)c(=O)c2cc(OC)c(OC)cc12,active: 3.18
2,CC(C)NCC(O)Cn1c2c(c3ccccc31)CCc1c-2cnn1-c1ccccc1 (stereo unspecified),inconclusive: -0.88
3,CCN=c1scc(-c2ccc3c(c2)NC(=O)CO3)n1N=C1CCCC1,inconclusive: -6.44
4,Cc1cccc(N2CCN(S(=O)(=O)c3ccc4c(c3)CCN4C(=O)CCC(=O)O)CC2C)c1 (stereo unspecified),inconclusive: -1.48
5,COc1ccc(NS(=O)(=O)c2ccc(OC)c(N(C)S(=O)(=O)c3ccc(Cl)cc3)c2)cc1,inconclusive: -1.82
6,COc1ccc(C(=O)N/N=C/c2sc3ccccc3c2O)cc1,inactive: -0.23
7,O=C(c1ccco1)N1CCN(c2nc(C(F)(F)F)nc3c2nnn3Cc2ccccc2)CC1,inconclusive: -1.43
8,CCOC(=O)CN1CC23C=CC(O2)C(C(=O)Nc2cc(OC)ccc2OC)C3C1=O (stereo unspecified),active: 4.17
9,Clc1nc2c(-c3ccccc3)nnn2c2ccccc12,inconclusive: -5.39
10,O=C(Nc1ccc([N+](=O)[O-])cc1)Nc1nc(-c2ccc(Cl)s2)cs1,inactive: -0.66
11,O=C(N/N=C/c1cc(Br)ccc1O)c1cccc(N2CCCC2=O)c1,inconclusive: -4.23
12,COc1cc(/C=C/C(=O)O)cc(S(=O)(=O)NCCCO)c1OC,inactive: 0.42
13,CC1CCCN(C(=O)N2c3ccccc3Sc3ccccc32)C1 (stereo unspecified),inactive: 0.69
14,COc1cccc(-c2nc(CS(=O)(=O)CC(=O)N3CCc4ccccc43)c(C)o2)c1,inconclusive: -0.32
15,CC1CCN(CC(CS(=O)(=O)c2ccc([N+](=O)[O-])cc2)N2CCC(C)CC2)CC1 (stereo unspecified),inactive: 2.11
16,CC1=C/C(=N\OS(=O)(=O)c2ccccc2)C=CC1=O,inconclusive: -1.23
17,O=C(CCCO)N/N=C/c1cc(Br)ccc1O,inconclusive: -1.19
18,CCOc1ccccc1NC(=O)CN(c1ccc(C)cc1)S(=O)(=O)c1c(C)n[nH]c1C,inconclusive: -1.99
19,Cn1c(C2=C(O)CN(c3ccccc3)C2=N)nc2ccccc21,inactive: -0.35
20,O=C(Nc1c(C(=O)c2ccccc2)oc2ccccc12)c1cc(-c2ccccc2O)n[nH]1,inactive: -0.49
21,Cc1cc2[nH]c3c(c[n+](C)c4ccccc34)c2cc1C,inconclusive: -6.84
22,C/C(CCc1ccc2c(c1)OCO2)=N\NC(=O)c1ccccc1,inconclusive: -5.64
23,CN(C)C=Nc1ccc2nn(-c3ccccc3)nc2c1,active: 3.14

# Some of the entries so far, bar-delimited:
row | Structure (SMILES) | z-score
1 | CCOC(=O)CNC(=O)c1cn(C)c(=O)c2cc(OC)c(OC)cc12 | active: 3.18
2 | CC(C)NCC(O)Cn1c2c(c3ccccc31)CCc1c-2cnn1-c1ccccc1 (stereo unspecified) | inconclusive: -0.88
13 | CC1CCCN(C(=O)N2c3ccccc3Sc3ccccc32)C1 (stereo unspecified) | inactive: 0.69
16 | CC1=C/C(=N\OS(=O)(=O)c2ccccc2)C=CC1=O | inconclusive: -1.23

# Next part

row,Structure (SMILES),z-score
1,COc1ccc(S(=O)(=O)N2CCN(c3ccc(C)cc3C)CC2)cc1OC,inactive: -0.4
2,CC(C)(C)c1ccc(-c2cn(-c3ccc(Br)cc3)c3[n+]2CCCS3)cc1,inconclusive: -4.1
3,CN(C)c1ccc(-c2n(C)c3ccccc3[n+]2C)cc1,inconclusive: -8.28
4,COc1ccc(-n2cc(-c3ccccc3)[n+]3c2CCCCC3)cc1,inconclusive: -1.96
5,O=C(OCC(=O)N1CCN(C(=O)c2ccco2)CC1)c1ccccc1OCc1ccccc1,active: 11.8
6,CCn1c(/C=C/c2ccc([N+](=O)[O-])o2)nc2ccccc2c1=O,inconclusive: -1.86
7,CCCCN(CC)S(=O)(=O)c1ccc(C(=O)N=c2sc3cc(NC(C)=O)ccc3n2C)cc1,inconclusive: -2.27
8,CCOc1ccc(OCCCCn2ccnc2)cc1,active: 3.52
9,c1ccc2c(c1)Cn1c-2nc2ccccc21,inactive: 0.8
10,COc1ccc(CNC(=S)N/N=C/c2ccc(O)c(OC)c2)cc1,inconclusive: -4.05
11,O=C(COc1ccccc1)N1CCN=C1c1ccccc1,active: 3.07
12,Cc1cc(/C=C2\SC(=S)NC2=O)c(C)n1C1CC1,active: 3.04
13,CCOC(=O)Cn1c2ccc(F)cc2c2nc(C)sc21,active: 3.68
14,CC1CN(CCCCOc2cccc(Oc3ccccc3)c2)CC(C)O1 (stereo unspecified),inactive: 0.66
15,O=C(NCC1CCCO1)c1ccc(CS(=O)(=O)c2c(Cl)cccc2Cl)o1 (stereo unspecified),inconclusive: -3.51
16,CN1CCN(/N=C/c2cccc(Cl)c2Cl)CC1,inactive: -0.14
17,CCNC(=O)CC1C(=O)N(c2cccc(OC)c2)C(=O)N1CCOC (stereo unspecified),inconclusive: -1.27
18,CCN1CCN(CC(=O)Nc2cc(C)c(C)cc2[N+](=O)[O-])CC1,inactive: 0.63
19,O=C(O)/C=C/c1coc2ccc(F)cc2c1=O,inconclusive: -1.08
20,Cn1c(=O)n(C)c2cc(NC(=O)COc3ccc(Cl)cc3)ccc21,active: 3.02
21,Brc1ccc(Oc2nsnc2N2CCOCC2)cc1,active: 3.88
22,CC(=O)n1cc(N(C(=O)CCl)c2ccc(Cl)cc2)c2ccccc21,inconclusive: -3.94
